The values below come from paper PMC6051640.

By UniProt entry, the sequences of proteins in these tests, tags left out. Where a name states a change or a piece, a line headed by the entry shows the natural chain unless it says otherwise.
UniProt B2RWS6: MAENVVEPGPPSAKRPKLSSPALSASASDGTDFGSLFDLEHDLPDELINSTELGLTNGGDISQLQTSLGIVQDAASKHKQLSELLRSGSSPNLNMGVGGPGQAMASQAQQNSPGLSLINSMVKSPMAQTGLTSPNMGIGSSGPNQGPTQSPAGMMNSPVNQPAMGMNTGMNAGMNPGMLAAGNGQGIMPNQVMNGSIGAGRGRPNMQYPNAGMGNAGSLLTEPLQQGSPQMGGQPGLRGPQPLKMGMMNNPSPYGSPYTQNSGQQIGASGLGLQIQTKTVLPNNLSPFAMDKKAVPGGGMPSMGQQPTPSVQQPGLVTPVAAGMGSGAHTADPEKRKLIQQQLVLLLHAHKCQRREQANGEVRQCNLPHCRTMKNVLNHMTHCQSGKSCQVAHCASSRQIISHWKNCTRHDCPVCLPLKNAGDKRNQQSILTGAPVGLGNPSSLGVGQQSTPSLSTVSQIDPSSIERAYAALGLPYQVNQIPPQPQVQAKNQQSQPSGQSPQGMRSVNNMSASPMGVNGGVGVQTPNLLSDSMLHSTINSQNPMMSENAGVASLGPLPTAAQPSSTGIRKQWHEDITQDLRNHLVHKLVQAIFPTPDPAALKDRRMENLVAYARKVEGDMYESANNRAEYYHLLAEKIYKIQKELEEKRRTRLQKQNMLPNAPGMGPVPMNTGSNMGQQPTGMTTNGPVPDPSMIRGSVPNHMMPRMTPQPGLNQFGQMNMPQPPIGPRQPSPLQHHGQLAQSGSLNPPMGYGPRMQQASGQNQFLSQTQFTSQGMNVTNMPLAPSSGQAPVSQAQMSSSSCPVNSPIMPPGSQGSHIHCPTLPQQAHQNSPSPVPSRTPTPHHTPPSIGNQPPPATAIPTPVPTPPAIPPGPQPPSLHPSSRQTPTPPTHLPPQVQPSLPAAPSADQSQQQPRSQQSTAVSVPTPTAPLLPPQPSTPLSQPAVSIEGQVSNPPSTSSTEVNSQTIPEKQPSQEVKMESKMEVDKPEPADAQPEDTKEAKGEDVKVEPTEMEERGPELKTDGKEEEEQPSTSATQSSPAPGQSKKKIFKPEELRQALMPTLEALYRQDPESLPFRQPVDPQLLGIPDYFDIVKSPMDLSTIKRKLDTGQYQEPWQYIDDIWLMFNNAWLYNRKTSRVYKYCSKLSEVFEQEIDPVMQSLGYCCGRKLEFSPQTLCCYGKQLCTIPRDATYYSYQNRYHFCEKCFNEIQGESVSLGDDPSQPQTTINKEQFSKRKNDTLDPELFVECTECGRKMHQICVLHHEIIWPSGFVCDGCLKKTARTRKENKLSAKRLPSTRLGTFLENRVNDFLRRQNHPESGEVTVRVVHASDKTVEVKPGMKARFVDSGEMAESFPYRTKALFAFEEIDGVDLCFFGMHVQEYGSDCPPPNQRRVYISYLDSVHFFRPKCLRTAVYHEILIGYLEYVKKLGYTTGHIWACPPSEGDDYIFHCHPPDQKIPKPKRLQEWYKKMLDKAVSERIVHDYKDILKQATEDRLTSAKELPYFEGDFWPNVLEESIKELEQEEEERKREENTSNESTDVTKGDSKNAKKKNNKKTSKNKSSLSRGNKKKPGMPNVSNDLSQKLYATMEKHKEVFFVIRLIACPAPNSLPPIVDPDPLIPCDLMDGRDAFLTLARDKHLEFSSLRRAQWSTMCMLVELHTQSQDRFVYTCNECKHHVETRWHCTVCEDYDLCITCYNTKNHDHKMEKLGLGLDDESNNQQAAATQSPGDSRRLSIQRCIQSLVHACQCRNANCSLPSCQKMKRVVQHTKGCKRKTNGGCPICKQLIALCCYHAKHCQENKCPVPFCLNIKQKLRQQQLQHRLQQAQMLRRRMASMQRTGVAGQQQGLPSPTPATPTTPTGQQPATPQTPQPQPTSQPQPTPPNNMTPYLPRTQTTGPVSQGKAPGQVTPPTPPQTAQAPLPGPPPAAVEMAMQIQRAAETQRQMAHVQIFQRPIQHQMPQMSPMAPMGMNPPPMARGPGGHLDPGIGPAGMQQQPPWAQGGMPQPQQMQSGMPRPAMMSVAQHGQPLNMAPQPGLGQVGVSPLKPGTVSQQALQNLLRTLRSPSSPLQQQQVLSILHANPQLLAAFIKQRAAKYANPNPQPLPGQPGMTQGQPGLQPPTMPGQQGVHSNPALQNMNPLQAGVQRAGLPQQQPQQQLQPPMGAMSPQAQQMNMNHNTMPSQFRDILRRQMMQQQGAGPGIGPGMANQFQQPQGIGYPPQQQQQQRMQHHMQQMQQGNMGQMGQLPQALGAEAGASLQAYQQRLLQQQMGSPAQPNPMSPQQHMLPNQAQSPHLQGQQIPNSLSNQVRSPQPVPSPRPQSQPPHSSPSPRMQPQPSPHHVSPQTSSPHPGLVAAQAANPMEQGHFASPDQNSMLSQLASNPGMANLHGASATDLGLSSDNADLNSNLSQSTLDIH
UniProt P45481: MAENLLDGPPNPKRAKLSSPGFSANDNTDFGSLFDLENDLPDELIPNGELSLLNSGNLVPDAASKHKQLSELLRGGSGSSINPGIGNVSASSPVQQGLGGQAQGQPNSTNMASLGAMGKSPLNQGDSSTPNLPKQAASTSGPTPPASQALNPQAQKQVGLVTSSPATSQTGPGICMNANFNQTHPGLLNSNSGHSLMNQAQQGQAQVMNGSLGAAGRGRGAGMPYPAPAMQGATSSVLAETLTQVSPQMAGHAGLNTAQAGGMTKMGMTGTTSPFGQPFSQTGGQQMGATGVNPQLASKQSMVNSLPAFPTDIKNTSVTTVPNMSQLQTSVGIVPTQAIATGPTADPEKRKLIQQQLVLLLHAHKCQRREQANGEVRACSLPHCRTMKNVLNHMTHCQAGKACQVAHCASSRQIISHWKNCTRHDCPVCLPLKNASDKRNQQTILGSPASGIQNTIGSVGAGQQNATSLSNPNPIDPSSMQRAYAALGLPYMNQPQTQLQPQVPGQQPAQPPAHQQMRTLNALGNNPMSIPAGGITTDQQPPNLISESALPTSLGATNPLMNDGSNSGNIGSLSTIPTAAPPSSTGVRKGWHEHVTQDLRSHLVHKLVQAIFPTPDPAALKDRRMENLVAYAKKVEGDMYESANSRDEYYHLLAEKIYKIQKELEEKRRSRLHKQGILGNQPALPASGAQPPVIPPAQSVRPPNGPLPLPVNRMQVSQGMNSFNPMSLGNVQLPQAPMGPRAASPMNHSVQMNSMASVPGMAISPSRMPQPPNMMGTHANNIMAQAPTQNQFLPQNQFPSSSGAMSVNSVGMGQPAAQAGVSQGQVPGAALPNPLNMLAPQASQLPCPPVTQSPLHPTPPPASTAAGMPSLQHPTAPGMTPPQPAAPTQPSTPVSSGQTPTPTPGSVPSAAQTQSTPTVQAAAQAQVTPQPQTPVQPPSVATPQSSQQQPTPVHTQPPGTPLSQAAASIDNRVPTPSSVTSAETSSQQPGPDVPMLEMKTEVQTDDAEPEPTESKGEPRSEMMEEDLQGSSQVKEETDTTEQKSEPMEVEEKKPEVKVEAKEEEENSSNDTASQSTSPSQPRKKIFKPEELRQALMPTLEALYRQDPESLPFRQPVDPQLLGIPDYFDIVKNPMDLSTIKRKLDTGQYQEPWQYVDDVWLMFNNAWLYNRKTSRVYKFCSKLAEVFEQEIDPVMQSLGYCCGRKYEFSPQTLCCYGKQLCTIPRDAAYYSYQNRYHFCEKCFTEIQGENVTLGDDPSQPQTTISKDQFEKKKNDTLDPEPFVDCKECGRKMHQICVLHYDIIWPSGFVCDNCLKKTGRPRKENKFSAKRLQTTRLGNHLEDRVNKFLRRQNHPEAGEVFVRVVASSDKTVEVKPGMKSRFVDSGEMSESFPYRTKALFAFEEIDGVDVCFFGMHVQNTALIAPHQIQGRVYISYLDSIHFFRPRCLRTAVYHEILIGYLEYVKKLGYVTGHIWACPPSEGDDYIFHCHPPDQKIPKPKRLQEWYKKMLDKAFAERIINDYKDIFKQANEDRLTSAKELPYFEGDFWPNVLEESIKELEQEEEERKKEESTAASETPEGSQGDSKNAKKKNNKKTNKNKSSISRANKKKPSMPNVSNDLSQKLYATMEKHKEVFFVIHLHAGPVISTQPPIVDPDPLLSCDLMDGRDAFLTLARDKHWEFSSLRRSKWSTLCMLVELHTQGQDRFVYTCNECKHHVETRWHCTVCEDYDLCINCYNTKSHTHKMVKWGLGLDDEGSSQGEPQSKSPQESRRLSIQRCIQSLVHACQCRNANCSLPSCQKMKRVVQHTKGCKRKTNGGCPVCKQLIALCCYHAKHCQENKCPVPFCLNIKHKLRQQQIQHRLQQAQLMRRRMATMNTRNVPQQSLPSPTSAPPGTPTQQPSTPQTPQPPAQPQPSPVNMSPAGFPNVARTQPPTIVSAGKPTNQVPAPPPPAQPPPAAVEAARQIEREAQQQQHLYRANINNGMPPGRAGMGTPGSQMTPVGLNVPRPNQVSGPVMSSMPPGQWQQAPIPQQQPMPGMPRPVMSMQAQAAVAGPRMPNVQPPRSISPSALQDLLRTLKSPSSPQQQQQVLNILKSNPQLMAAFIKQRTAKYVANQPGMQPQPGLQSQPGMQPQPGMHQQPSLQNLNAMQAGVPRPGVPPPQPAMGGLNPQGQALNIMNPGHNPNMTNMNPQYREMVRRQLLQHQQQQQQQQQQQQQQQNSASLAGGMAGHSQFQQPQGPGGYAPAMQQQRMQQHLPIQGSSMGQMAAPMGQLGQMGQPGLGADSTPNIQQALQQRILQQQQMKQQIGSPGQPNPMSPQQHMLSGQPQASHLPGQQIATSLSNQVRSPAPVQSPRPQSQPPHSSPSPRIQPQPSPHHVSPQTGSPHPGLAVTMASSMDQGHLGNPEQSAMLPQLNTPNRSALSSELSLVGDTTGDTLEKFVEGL
UniProt Q02248: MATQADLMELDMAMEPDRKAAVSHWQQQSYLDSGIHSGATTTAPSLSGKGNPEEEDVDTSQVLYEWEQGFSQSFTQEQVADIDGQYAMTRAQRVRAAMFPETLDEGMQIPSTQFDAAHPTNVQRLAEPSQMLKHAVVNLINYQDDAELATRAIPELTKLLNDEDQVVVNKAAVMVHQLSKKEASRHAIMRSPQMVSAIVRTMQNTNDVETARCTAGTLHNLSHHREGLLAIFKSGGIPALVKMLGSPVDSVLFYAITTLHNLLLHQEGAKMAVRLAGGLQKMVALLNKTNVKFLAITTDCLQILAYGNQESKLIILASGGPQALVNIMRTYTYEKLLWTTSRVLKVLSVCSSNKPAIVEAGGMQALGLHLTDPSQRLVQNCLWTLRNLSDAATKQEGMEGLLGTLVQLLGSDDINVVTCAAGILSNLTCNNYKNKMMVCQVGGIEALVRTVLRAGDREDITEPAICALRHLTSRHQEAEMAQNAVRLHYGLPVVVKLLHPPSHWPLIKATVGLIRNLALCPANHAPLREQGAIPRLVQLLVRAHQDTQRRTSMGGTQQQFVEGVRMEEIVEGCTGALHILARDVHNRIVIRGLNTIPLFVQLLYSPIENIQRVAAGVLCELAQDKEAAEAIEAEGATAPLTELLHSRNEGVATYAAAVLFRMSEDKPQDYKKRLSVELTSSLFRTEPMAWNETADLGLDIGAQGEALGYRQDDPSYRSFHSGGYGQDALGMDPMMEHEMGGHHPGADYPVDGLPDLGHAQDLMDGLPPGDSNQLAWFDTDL

Assay [1] deals with E1A-binding protein, 300 kDa (p300), wild type (mouse (endogenous in P19)) (UniProt B2RWS6). The assay can be described thus: co-IP; wild type P19 cells; 200 μg nuclear protein in co-ip buffer (25mM Tris HCl pH7.5, 150mM NaCl, 5% glycerol, 0.5% NP40, 1mM EDTA, 2mM DTT), 2 μg CBP, p300 or normal rabbit IgG antibody overnight at 4°C, protein A-agarose; immunoblot for β-catenin. For orientation: Immunoblotting shows a protein as a band on a membrane.

Assay [2] addresses cAMP response element binding protein (CREB)-binding protein (CBP) (mouse (endogenous in P19)) (UniProt P45481). The description is as above.
For assay [3] the target is unchanged. The assay can be described thus: co-IP; p300-edited P19 cells (clone 10); 200 μg nuclear protein in co-ip buffer (25mM Tris HCl pH7.5, 150mM NaCl, 5% glycerol, 0.5% NP40, 1mM EDTA, 2mM DTT), 2 μg CBP, p300 or normal rabbit IgG antibody overnight at 4°C, protein A-agarose; immunoblot for β-catenin.

These are yes or no findings as the source states them, for the method shown. In cells and extracts the contact can be indirect. Some binding calls cover weakened binding; strength is not graded here.

As for β-catenin (from UniProt Q02248 1-781), the figures for the binding entry in assay [1], in assay [2] and in assay [3] were “binds”, “binds” and “no binding (condition: in p300-edited P19 cells)”, respectively.
